According to the supplement of paper PMC11732987, “Enantioselective OTUD7B fragment discovery through chemoproteomics screening and high-throughput optimisation” (Communications Chemistry, 2025):
The list shows a part of the results. The data scatter; read single values as rough.

Chains of the proteins cited; added tags and fusions are not shown. Lines headed by an entry give the natural chain unless they say otherwise; changes in a name come on top. Residues count along the entry.
UniProt Q86WJ1, 321-348: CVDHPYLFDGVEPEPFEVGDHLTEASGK
UniProt Q5VT06: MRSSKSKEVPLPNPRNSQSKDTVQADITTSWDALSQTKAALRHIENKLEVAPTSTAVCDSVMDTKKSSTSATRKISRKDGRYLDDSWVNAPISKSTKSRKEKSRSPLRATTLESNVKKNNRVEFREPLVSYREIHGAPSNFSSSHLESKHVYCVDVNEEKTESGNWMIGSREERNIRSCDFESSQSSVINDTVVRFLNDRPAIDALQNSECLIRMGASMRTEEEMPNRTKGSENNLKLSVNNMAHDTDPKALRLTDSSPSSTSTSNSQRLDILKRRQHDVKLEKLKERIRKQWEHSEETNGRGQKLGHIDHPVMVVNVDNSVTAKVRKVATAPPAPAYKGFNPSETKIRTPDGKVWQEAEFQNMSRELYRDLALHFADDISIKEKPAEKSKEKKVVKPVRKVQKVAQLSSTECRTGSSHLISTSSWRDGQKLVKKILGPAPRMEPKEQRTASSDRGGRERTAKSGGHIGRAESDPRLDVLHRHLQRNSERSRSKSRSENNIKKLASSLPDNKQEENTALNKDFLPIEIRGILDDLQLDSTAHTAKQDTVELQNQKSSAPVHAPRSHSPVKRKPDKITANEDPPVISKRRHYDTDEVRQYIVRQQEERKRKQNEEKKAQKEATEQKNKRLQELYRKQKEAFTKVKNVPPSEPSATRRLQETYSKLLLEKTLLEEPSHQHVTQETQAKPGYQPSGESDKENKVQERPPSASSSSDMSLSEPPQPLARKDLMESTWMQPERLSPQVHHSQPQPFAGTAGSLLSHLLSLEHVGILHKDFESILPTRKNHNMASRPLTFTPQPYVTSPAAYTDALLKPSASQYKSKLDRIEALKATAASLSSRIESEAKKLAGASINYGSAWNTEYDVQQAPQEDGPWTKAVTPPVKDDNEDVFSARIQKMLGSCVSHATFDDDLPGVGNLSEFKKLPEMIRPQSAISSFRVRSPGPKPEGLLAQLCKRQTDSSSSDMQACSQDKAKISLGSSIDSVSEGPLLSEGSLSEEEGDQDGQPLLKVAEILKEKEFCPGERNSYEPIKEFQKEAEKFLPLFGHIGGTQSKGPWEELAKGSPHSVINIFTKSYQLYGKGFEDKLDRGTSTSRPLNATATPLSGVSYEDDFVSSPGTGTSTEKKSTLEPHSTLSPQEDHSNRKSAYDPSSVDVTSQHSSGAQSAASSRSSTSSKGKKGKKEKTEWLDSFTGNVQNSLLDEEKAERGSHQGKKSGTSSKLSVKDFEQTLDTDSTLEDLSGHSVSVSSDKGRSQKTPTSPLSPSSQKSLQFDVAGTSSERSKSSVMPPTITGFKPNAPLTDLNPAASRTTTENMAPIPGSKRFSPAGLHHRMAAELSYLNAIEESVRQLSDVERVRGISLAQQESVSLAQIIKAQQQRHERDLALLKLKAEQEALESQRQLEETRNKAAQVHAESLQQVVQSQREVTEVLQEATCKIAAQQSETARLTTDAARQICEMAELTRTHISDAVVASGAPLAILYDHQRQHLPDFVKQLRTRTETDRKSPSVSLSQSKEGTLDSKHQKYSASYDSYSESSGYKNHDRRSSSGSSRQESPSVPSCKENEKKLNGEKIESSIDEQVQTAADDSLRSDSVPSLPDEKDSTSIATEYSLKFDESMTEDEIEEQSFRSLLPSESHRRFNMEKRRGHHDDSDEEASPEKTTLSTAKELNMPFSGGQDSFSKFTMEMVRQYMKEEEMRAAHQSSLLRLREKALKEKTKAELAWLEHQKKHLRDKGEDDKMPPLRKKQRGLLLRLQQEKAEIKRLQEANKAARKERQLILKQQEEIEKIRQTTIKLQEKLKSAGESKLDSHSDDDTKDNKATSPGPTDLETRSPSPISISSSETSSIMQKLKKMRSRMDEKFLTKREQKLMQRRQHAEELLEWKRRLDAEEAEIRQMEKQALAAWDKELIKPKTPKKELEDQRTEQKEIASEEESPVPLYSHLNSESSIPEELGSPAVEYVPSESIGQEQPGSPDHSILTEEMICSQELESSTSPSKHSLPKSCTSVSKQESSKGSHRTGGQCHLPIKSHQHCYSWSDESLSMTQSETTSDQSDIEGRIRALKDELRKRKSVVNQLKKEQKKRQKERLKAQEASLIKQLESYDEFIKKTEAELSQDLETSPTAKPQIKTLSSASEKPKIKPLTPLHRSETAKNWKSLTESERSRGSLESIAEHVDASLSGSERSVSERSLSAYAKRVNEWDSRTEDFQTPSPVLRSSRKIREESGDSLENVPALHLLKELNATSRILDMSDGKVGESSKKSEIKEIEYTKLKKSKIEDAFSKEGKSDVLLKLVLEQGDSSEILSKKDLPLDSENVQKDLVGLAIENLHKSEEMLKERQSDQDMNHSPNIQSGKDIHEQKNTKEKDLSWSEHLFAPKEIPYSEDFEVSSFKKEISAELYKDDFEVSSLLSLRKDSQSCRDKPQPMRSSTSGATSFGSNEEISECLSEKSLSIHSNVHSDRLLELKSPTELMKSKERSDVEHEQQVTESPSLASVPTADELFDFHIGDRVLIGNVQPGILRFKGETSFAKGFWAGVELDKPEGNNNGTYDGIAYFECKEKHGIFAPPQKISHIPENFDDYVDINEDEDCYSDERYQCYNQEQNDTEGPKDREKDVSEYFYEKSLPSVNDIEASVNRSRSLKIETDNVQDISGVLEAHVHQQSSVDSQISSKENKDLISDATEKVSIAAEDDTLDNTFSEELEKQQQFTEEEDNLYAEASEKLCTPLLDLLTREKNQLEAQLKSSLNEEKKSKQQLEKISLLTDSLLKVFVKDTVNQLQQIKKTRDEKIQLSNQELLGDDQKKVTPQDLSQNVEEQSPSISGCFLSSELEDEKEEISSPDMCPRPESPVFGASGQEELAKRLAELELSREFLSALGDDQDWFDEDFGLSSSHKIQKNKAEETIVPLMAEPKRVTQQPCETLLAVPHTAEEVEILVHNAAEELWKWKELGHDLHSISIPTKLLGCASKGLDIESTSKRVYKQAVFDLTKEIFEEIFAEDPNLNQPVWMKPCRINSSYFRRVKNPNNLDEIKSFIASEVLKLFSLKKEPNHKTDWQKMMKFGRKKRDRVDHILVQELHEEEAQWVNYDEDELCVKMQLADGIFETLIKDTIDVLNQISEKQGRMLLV
UniProt P30279: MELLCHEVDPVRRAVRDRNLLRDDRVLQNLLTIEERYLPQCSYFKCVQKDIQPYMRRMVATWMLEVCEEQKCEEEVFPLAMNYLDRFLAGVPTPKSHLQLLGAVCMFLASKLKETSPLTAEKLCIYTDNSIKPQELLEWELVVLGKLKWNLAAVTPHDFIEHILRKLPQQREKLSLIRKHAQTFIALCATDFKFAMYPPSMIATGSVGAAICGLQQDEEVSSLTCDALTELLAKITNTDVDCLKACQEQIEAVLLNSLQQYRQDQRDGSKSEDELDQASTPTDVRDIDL
UniProt Q15131: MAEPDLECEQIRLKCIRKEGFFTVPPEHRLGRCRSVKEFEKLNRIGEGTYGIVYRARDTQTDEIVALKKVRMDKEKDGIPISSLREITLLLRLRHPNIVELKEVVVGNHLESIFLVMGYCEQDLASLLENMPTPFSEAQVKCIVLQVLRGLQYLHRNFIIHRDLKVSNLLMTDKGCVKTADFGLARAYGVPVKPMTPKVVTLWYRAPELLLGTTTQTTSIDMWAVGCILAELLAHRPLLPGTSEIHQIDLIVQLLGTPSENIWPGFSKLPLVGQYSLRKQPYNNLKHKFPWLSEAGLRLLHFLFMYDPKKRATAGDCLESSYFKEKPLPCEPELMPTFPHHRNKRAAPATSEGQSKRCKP
UniProt Q69YH5: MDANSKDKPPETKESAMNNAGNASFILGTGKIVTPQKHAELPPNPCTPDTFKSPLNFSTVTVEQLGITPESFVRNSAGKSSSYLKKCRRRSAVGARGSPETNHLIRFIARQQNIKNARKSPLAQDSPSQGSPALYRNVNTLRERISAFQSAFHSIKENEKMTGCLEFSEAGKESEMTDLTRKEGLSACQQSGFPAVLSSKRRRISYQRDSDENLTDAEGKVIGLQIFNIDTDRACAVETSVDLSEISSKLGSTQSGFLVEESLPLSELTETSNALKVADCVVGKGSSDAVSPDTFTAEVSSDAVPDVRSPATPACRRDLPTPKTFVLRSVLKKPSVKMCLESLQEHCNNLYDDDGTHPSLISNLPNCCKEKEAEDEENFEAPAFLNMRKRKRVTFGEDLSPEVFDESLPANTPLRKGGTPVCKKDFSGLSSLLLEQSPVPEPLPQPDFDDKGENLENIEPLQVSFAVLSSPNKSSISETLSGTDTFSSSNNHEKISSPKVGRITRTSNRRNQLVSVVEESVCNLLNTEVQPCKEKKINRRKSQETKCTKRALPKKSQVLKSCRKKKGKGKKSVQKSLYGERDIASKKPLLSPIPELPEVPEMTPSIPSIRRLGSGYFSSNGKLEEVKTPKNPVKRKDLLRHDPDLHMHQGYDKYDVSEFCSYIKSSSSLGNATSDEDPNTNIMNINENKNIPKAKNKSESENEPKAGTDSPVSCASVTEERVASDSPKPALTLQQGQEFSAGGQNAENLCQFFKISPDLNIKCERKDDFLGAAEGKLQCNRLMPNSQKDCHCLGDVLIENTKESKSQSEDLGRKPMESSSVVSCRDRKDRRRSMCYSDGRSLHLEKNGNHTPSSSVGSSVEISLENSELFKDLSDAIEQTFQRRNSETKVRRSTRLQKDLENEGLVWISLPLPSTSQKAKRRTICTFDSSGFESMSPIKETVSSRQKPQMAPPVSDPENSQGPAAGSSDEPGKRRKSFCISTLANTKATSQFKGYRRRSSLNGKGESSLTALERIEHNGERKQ
UniProt Q9H6F5: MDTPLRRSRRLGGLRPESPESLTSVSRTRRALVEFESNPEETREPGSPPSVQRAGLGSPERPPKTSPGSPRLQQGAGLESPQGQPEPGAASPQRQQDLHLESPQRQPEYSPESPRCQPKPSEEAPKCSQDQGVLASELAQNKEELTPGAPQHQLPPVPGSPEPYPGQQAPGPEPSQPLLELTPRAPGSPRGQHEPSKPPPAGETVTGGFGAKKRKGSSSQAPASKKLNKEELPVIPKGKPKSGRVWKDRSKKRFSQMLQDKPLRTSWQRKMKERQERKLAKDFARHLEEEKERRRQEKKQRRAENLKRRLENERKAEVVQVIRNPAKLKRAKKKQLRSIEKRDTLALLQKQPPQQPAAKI
UniProt Q9NPF0: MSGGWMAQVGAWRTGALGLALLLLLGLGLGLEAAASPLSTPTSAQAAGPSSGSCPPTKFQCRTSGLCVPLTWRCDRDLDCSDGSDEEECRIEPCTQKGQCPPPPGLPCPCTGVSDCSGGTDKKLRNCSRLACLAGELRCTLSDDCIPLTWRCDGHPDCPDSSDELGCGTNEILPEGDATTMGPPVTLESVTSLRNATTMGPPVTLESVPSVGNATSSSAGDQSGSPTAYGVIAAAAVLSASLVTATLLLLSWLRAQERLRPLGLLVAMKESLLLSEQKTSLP
UniProt P32970: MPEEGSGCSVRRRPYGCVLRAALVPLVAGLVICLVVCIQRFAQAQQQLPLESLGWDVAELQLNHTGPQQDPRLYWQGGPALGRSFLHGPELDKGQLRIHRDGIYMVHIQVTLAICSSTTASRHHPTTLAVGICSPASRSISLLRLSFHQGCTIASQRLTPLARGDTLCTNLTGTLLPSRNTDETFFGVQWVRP
UniProt Q99741: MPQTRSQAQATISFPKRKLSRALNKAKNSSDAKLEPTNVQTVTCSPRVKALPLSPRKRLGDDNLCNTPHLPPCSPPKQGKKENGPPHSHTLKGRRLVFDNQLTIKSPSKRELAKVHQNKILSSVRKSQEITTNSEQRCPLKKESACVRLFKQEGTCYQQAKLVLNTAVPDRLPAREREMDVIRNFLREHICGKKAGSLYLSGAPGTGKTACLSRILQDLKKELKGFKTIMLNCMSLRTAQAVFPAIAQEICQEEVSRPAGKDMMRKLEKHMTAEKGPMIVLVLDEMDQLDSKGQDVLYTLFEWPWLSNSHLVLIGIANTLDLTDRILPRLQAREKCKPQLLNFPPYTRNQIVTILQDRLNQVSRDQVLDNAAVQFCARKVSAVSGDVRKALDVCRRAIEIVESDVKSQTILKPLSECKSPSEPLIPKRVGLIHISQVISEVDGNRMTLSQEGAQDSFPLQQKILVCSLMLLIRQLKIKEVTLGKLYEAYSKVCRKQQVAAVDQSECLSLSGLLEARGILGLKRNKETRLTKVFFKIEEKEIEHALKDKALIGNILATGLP

Experiments:
[1] = compound: ClCC(=O)N[C@@H]1CCCc2ccccc12; assay: log2 mean competition ratio of IA-DTB cysteine labelling (DMSO/compound) (log2 ratio); higher = stronger cysteine engagement by compound; settings: treatment time: 4 h, cell line lysate: HEK293T
Experimental: (§1)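 IA-DTB competitive cysteine chemoproteomics in HEK293T RIPA lysate. Lysates were treated with compound 29 or 30 at 50 or 200 µM for 4 h, then IA-DTB (500 µM, 1 h), trypsin-digested, NeutrAvidin-enriched and analysed by diaPASEF. Competition ratio = intensity DMSO / intensity compound (n=4 treated, n=64 DMSO); binding: mean log2 CR ≥ 1 and p ≤ 0.05 plus QC filters. Target is the cysteine site.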

[2] = compound: ClCC(=O)N[C@H]1CCCc2ccccc12; assay: as above; settings: treatment time: 4 h, cell line lysate: HEK293T
Experimental: as §1

Target | log2 mean competition ratio ([1]; 50 µM) | log2 mean competition ratio ([1]; 200 µM) | log2 mean competition ratio ([2]; 50 µM) | log2 mean competition ratio ([2]; 200 µM)
CEP55 C440 (UniProt Q53EZ4) | -0.281 | 0.637 | -0.3 | 0.162
CHD1L C123 (UniProt Q86WJ1) | 0.403 | 0.41 | 0.0882 | 0.387
CDC37 C64 | -0.352 | -0.0219 | -0.315 | 0.0157
CEP350 C413 (UniProt Q5VT06) | -0.166 | 0.204 | 0.0602 | 0.129
CCAR2 C754 | 0.149 | 0.498 | 0.409 | 0.28
CHAMP1 C770 (UniProt Q96JM3) | 0.0916 | -0.146 | 0.00248 | -0.0504
CCND2 C5 (UniProt P30279) | -0.153 | 0.321 | -0.681 | 0.46
CDK10 C317 (UniProt Q15131) | -0.117 | -0.0741 | -0.025 | 0.0787
CDCA2 C824 (UniProt Q69YH5) | 0.0508 | 0.286 | 0.306 | 0.115
CERT1 C70 | 0.249 | 0.162 | 0.267 | 0.147
CEP350 C1557 (UniProt Q5VT06) | -0.234 | 0.105 | 0.0901 | 0.0568
CEP104 C259 (UniProt O60308) | -0.106 | 0.0937 | -0.417 | -0.0439
CDCA7 C289 | -0.0806 | -0.128 | -0.128 | 0.646
CCDC86 C116 (UniProt Q9H6F5) | 0.23 | 0.0157 | 0.26 | -0.0807
CENPF C373 (UniProt P49454) | -0.0577 | 0.0149 | 0.00897 | 0.0656
CCSER1 C230 | -0.0232 | 0.0765 | -0.014 | 0.187
CEP78 C653 (UniProt Q5JTW2) | -0.113 | -0.1 | -0.274 | -0.233
CD320 C132 (UniProt Q9NPF0) | 0.171 | 0.0105 | 0.956 | 0.398
CENPF C2680 (UniProt P49454) | 0.0452 | -0.198 | -0.0314 | -0.553
CD70 C8 (UniProt P32970) | -0.0851 | 0.142 | -0.258 | -0.0494
CDC6 C156 (UniProt Q99741) | -0.0145 | -0.701 | 0.0946 | -0.059
CELSR2 C1323 (UniProt Q9HCU4) | 0.0395 | 0.269 | -0.35 | 0.63
CHD1L C321 (UniProt Q86WJ1) | -0.562 | -0.253 | 0.512 | -0.332

Two consecutive records from above:
Target | log2 mean competition ratio ([1]; 50 µM) | log2 mean competition ratio ([1]; 200 µM) | log2 mean competition ratio ([2]; 50 µM) | log2 mean competition ratio ([2]; 200 µM)
CCND2 C5 (UniProt P30279) | -0.153 | 0.321 | -0.681 | 0.46
CDK10 C317 (UniProt Q15131) | -0.117 | -0.0741 | -0.025 | 0.0787
